Results deposited as PubChem BioAssay AID1224830 (NIAID, 2016)
Purpose: 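Host factors that control LPS-induced TNF expression in human macrophages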 (primary screen). Cell system: human THP-1 monocytic leukaemia cells, TNF dual-luciferase reporter clone, PMA-differentiated to macrophage-like cells. Reagent: siRNA pool against human genes, 50 nM. Time to read-out: LPS for 4 h, given about 3 days after siRNA transfection. Treatment: bacterial LPS (TLR4 ligand), 10 ng/ml. Measured: 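Ratio of firefly to renilla light, scaled to the plate median and expressed as a robust z-score per replicate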. Direction: TNF reporter robust z-score: higher = stronger TNF reporter response to LPS. Hit rule: 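Each well counts as active if its z-score is over 2.8 or under -1.5; controls are left without a call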.
The deposit covers about 18,000 reagents; this is an unselected part. Of all reagents, about 2,900 (16%) were called active. 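Calls are made per well; low scores hint the gene aids the LPS response, high scores that it dampens it.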 Unmarked entries are inactive. Repeated entries: four replicate wells of each siRNA pool.

target gene	TNF reporter robust z-score
TFCP2 (transcription factor CP2)	1.06
TFCP2 (transcription factor CP2)	0.77
TFCP2 (transcription factor CP2)	-0.35
TFCP2 (transcription factor CP2)	0.17
RPL37 (ribosomal protein L37)	-1.3
RPL37 (ribosomal protein L37)	-1.11
RPL37 (ribosomal protein L37)	-1.53 (active)
RPL37 (ribosomal protein L37)	-1.12
CD99 (CD99 molecule (Xg blood group))	-0.75
CD99 (CD99 molecule (Xg blood group))	0.08
CD99 (CD99 molecule (Xg blood group))	-1.31
CD99 (CD99 molecule (Xg blood group))	-0.13
JAK1 (Janus kinase 1)	0.73
JAK1 (Janus kinase 1)	0.16
JAK1 (Janus kinase 1)	-0.2
JAK1 (Janus kinase 1)	1.31
DRC3 (dynein regulatory complex subunit 3)	0.71
DRC3 (dynein regulatory complex subunit 3)	1.16
DRC3 (dynein regulatory complex subunit 3)	1.46
DRC3 (dynein regulatory complex subunit 3)	0.99
LINC01565 (long independently transcribed non-coding RNA 1565)	-0.76
LINC01565 (long independently transcribed non-coding RNA 1565)	-0.6
LINC01565 (long independently transcribed non-coding RNA 1565)	1.7
LINC01565 (long independently transcribed non-coding RNA 1565)	1.51
GOLGA7B (golgin A7 family member B)	-0.06
GOLGA7B (golgin A7 family member B)	0.79
GOLGA7B (golgin A7 family member B)	0.15
GOLGA7B (golgin A7 family member B)	0.07
CYP24A1 (cytochrome P450 family 24 subfamily A member 1)	-0.83
CYP24A1 (cytochrome P450 family 24 subfamily A member 1)	-0.87
CYP24A1 (cytochrome P450 family 24 subfamily A member 1)	-0.75
CYP24A1 (cytochrome P450 family 24 subfamily A member 1)	-0.63
CHEK2 (checkpoint kinase 2)	0.06
CHEK2 (checkpoint kinase 2)	0.36
CHEK2 (checkpoint kinase 2)	-1.35
CHEK2 (checkpoint kinase 2)	1.42
CHRNB1 (cholinergic receptor nicotinic beta 1 subunit)	-0.38
CHRNB1 (cholinergic receptor nicotinic beta 1 subunit)	-0.33
CHRNB1 (cholinergic receptor nicotinic beta 1 subunit)	-0.98
CHRNB1 (cholinergic receptor nicotinic beta 1 subunit)	0.1
PNLIPRP1 (pancreatic lipase related protein 1)	-1.03
PNLIPRP1 (pancreatic lipase related protein 1)	-1.16
PNLIPRP1 (pancreatic lipase related protein 1)	-1.28
PNLIPRP1 (pancreatic lipase related protein 1)	-0.95
KIF13B (kinesin family member 13B)	1.15
KIF13B (kinesin family member 13B)	0.91
KIF13B (kinesin family member 13B)	0.82
KIF13B (kinesin family member 13B)	1.63
CYLC2 (cylicin 2)	0.66
CYLC2 (cylicin 2)	0.44
CYLC2 (cylicin 2)	0.01
CYLC2 (cylicin 2)	0.89
SLC12A1	0.06
SLC12A1	0.24
SLC12A1	-0.14
SLC12A1	-0.02
NSFL1C (NSFL1 cofactor)	-1.07
NSFL1C (NSFL1 cofactor)	-0.36
NSFL1C (NSFL1 cofactor)	-1.22
NSFL1C (NSFL1 cofactor)	-0.95
GUCA1A (guanylate cyclase activator 1A)	0.51
GUCA1A (guanylate cyclase activator 1A)	-0.14
GUCA1A (guanylate cyclase activator 1A)	-0.24
GUCA1A (guanylate cyclase activator 1A)	0.69
MTNR1B (melatonin receptor 1B)	-1.15
MTNR1B (melatonin receptor 1B)	-0.25
MTNR1B (melatonin receptor 1B)	-0.61
MTNR1B (melatonin receptor 1B)	-0.91
RAB3B (RAB3B, member RAS oncogene family)	-0.03
RAB3B (RAB3B, member RAS oncogene family)	0.13
RAB3B (RAB3B, member RAS oncogene family)	-0.02
RAB3B (RAB3B, member RAS oncogene family)	0.48
NR1H4 (nuclear receptor subfamily 1 group H member 4)	0.76
NR1H4 (nuclear receptor subfamily 1 group H member 4)	-0.03
NR1H4 (nuclear receptor subfamily 1 group H member 4)	0.46
NR1H4 (nuclear receptor subfamily 1 group H member 4)	1.02
TAS2R14 (taste 2 receptor member 14)	1.19
TAS2R14 (taste 2 receptor member 14)	6.58 (active)
TAS2R14 (taste 2 receptor member 14)	1.43
TAS2R14 (taste 2 receptor member 14)	0.99
RCC1L (RCC1 like)	0.74
RCC1L (RCC1 like)	0.75
RCC1L (RCC1 like)	0.09
RCC1L (RCC1 like)	2.13
IDUA (alpha-L-iduronidase)	0.6
IDUA (alpha-L-iduronidase)	0.43
IDUA (alpha-L-iduronidase)	0.93
IDUA (alpha-L-iduronidase)	1.23
PGBD4 (piggyBac transposable element derived 4)	0.83
PGBD4 (piggyBac transposable element derived 4)	-0.92
PGBD4 (piggyBac transposable element derived 4)	0.51
PGBD4 (piggyBac transposable element derived 4)	-0.55
PLIN1 (perilipin 1)	0.83
PLIN1 (perilipin 1)	-0.09
PLIN1 (perilipin 1)	0.06
PLIN1 (perilipin 1)	-0.15
COPS4 (COP9 signalosome subunit 4)	0.11
COPS4 (COP9 signalosome subunit 4)	0.97
COPS4 (COP9 signalosome subunit 4)	0.54
COPS4 (COP9 signalosome subunit 4)	-0.07
CLVS1 (clavesin 1)	-0.65
CLVS1 (clavesin 1)	-0.51
CLVS1 (clavesin 1)	-0.66
CLVS1 (clavesin 1)	-0.99
NGFR (nerve growth factor receptor)	0.55
NGFR (nerve growth factor receptor)	-1.19
NGFR (nerve growth factor receptor)	-1.11
NGFR (nerve growth factor receptor)	-1.16
EEF1E1 (eukaryotic translation elongation factor 1 epsilon 1)	-1.32
EEF1E1 (eukaryotic translation elongation factor 1 epsilon 1)	-0.84
EEF1E1 (eukaryotic translation elongation factor 1 epsilon 1)	-0.98
EEF1E1 (eukaryotic translation elongation factor 1 epsilon 1)	-0.69
